Source: article doi:10.1101/2023.09.28.559918
Where two headings read alike, the source gives them in different places. No constants are given. Whether binding was seen depends on the method and setting. For some assays here: Binding seen in cells or lysates may run through a third protein. Some entries that bind do so weakly or less than the wild type. Sequences can lack the tags named with a protein.

Tests used:
[1] = biological target: T1, FurA (previously YlaN), Fur antirepressor (bacterial two-hybrid fusion) (Bacillus subtilis) (UniProt O07638); assay: two-hybrid
T1 sequence: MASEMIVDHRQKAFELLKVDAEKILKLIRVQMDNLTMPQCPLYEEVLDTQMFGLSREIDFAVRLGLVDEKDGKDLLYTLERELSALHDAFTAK

[2] = biological target: T1, FurA (previously YlaN), Fur antirepressor (bacterial two-hybrid fusion) (Bacillus subtilis); assay: two-hybrid; remark: listed apart in the source
[3] = biological target: T2, FurA-Strep (Bacillus subtilis) (UniProt O07638); assay: co-IP
T2 sequence: T1 sequence

B1: Fur, ferric uptake regulator (bacterial two-hybrid fusion) (protein, UniProt P54574 1-149)
chain: MENRIDRIKKQLHSSSYKLTPQREATVRVLLENEEDHLSAEDVYLLVKEKSPEIGLATVYRTLELLTELKVVDKINFGDGVSRYDLRKEGAAHFHHHLVCMECGAVDEIEEDLLEDVEEIIERDWKFKIKDHRLTFHGICHRCNGKETE
binding [1]: binds | binding [2]: binds

B2: Fur-FLAG (protein, UniProt P54574 1-149)
chain: B1 chain
binding [3]: binds

B3: FurA (previously YlaN), Fur antirepressor (bacterial two-hybrid fusion) (protein, UniProt O07638 1-93)
chain: T1 sequence
binding [1]: binds | binding [2]: binds
